“And” between values parts separate entries of the source, which are not always exact repeats. Equal values may be shown once.
Legend:
[1] = HRP Avidin (hot) / cold Avidin binding to talc in 96 well plate, TMB absorbance 450 nm; details: Ex 12
porcine bladder mucosa = test: Attachment of HRP-labeled avidin / HRP-labeled Biotin / Indium-111-DOTA-biotin to bladder mucosa, microtitre plate bladder platform; set-up: species or system pig
[2] = Avidin saturation of talc and release on washing, Pierce 660 nm total protein assay of supernatants; assay type: binding; details: for Saturation of AVIDIN to the combine surface of 100 mg talc / AVIDIN in supernatant after incubation / Avidin binded to talc / Amount of Avidin removed by wash: Ex 3; for Avidin binded with talc / Avidin in supernatant / Avidin per talc surface: Ex 4
[3] = Biotin Rhodamine binding to talc after washing with buffers of different pH, fluorescent assay 496 nm/520 nm
[4] = 100 mg talc, 198.4 μg Avidin in reaction
[5] = 100 mg talc, 1650.3 μg Avidin in reaction
[6] = 100 mg talc, Avidin added 330 μg/ml
[7] = 100 mg talc, Avidin added 3300 μg/ml
[8] = 100 mg talc, Avidin added 6600 μg/ml
[9] = 100 mg talc, Avidin added 19800 μg/ml

With “Avidin: Avidin from egg white (Sigma A9275), 66 kDa biotin-binding protein; unlabeled = cold Avidin” as the substance, how does the “Efficiency of binding to talc” value ([1]; 1 mg talc, Cold Avidin only 100 ug/mL) read?
Its value is 0.31 OD.

What about the “Efficiency of binding to talc” value ([1]; 1 mg talc, Cold Avidin only 200 ug/mL) of the same substance?
Its value is 0.27 OD.

What about the “Efficiency of binding to talc” value ([1]; 1 mg talc, Cold Avidin only 400 ug/mL) of the same substance?
Its value is 0.3 OD.

And the “Efficiency of binding to talc” value ([1]; 1 mg talc, Cold Avidin only 4 mg/mL)?
Its value is 0.33 OD.

And the “Efficiency of binding to talc” value ([1]; 5 mg talc, Cold Avidin only 100 ug/mL)?
The value was 1.38 OD.

What about the “Efficiency of binding to talc” value ([1]; 5 mg talc, Cold Avidin only 200 ug/mL) of the same substance?
The value was 1.4 OD.

What about the “Efficiency of binding to talc” value ([1]; 5 mg talc, Cold Avidin only 400 ug/mL) of the same substance?
Its value is 1.01 OD.

And the “Efficiency of binding to talc” value ([1]; 5 mg talc, Cold Avidin only 4 mg/mL)?
The value was 1.23 OD.

What about the “binding to porcine bladder mucosa” value (porcine bladder mucosa) of the same substance?
The value was “bind tightly”.

And the “pH at which binding to porcine bladder mucosa is best” value (porcine bladder mucosa; protein free saline)?
The value was ≤ 8.0.

And the “Saturation of AVIDIN to the combine surface of 100 mg talc” value ([2]; 198.4 μg Avidin added)?
Its value is 2.48 μg/cm^2.

And the “Saturation of AVIDIN to the combine surface of 100 mg talc” value ([2]; 1650.3 μg Avidin added)?
Its value is 6.25 μg/cm^2.

And the “AVIDIN in supernatant after incubation” value [2, 4]?
Its value is 13.7 μg/0.5 ml.

What about the “Avidin binded to talc” value [2, 4] of the same substance?
The value was 184.7 µg.

And the “AVIDIN in supernatant after incubation” value ([2]; 100 mg talc, 198.4 μg Avidin in reaction (0.5 ml))?
The value was 27.4 µg/mL.

And the “AVIDIN in supernatant after incubation” value [2, 5]?
Its value is 1185 μg/0.5 ml.

And the “Avidin binded to talc” value [2, 5]?
The value was 465.3 µg.

And the “AVIDIN in supernatant after incubation” value ([2]; 100 mg talc, 1650.3 μg Avidin in reaction (0.5 ml))?
Its value is 2370 µg/mL.

What about the “Amount of Avidin removed by wash” value ([2]; 1st wash with EDTA, 198.4 μg Avidin) of the same substance?
Its value is 15.8 µg/mL.

And the “Amount of Avidin removed by wash” value ([2]; 1st wash with EDTA, 1650.3 μg Avidin)?
The value was 13.2 µg/mL.

And the “Amount of Avidin removed by wash” value ([2]; 1st wash with PBS, 198.4 μg Avidin, 100 mg talc)?
The value was 31.4 µg/mL.

And the “Amount of Avidin removed by wash” value ([2]; 1st wash with PBS, 1650.3 μg Avidin, 100 mg talc)?
Its value is 307.4 µg/mL.

And the “Amount of Avidin removed by wash” value ([2]; 2nd wash with EDTA, 198.4 μg Avidin)?
Its value is 19.8 µg/mL.

And the “Amount of Avidin removed by wash” value ([2]; 2nd wash with EDTA, 1650.3 μg Avidin)?
Its value is 12.3 µg/mL.

What about the “Amount of Avidin removed by wash” value ([2]; 2nd wash with PBS, 198.4 μg Avidin) of the same substance?
The value was 27.6 µg/mL.

What about the “Amount of Avidin removed by wash” value ([2]; 2nd wash with PBS, 1650.3 μg Avidin) of the same substance?
The value was 67.3 µg/mL.

And the “Amount of Avidin removed by wash” value ([2]; 3rd wash with EDTA, 198.4 μg Avidin)?
The value was 13 µg/mL.

And the “Amount of Avidin removed by wash” value ([2]; 3rd wash with EDTA, 1650.3 μg Avidin)?
The value was 13.2 µg/mL.

What about the “Amount of Avidin removed by wash” value ([2]; 3rd wash with PBS, 198.4 μg Avidin) of the same substance?
Its value is 32.7 µg/mL.

And the “Amount of Avidin removed by wash” value ([2]; 3rd wash with PBS, 1650.3 μg Avidin)?
Its value is 40.3 µg/mL.

And the “Avidin binded with talc” value [2, 6]?
Its value is 110.4 µg/mL.

What about the Avidin in supernatant [2, 6] of the same substance?
The Avidin in supernatant was 219.6 μg, ml.

And the “Avidin per talc surface” value [2, 6]?
The value was 1.5 μg/cm2.

What about the “Avidin binded with talc” value [2, 7] of the same substance?
The value was 2452.7 µg/mL.

What about the Avidin in supernatant [2, 7] of the same substance?
The Avidin in supernatant was 847.3 μg, ml.

And the “Avidin per talc surface” value [2, 7]?
The value was 33.0 μg/cm2 and 33 μg/cm2.

What about the “Avidin binded with talc” value [2, 8] of the same substance?
The value was 4631.5 µg/mL.

And the Avidin in supernatant [2, 8]?
The Avidin in supernatant was 1968.5 μg, ml.

What about the “Avidin per talc surface” value [2, 8] of the same substance?
Its value is 62.3 μg/cm2.

And the “Avidin binded with talc” value [2, 9]?
Its value is 12166.7 µg/mL.

And the Avidin in supernatant [2, 9]?
Its Avidin in supernatant is 7633.3 μg, ml.

What about the “Avidin per talc surface” value [2, 9] of the same substance?
Its value is 163.5 μg/cm2.

And the “Avidin binded with talc” value ([2]; 100 mg talc, Avidin added […])?
The value was 7952.7 µg/mL.

What about the Avidin in supernatant ([2]; 100 mg talc, Avidin added […]) of the same substance?
Its Avidin in supernatant is 5247.3 μg, ml.

And the “Avidin per talc surface” value ([2]; 100 mg talc, Avidin added […])?
Its value is 106.9 μg/cm2.

Which results are given for Biotin Rhodamine 110?
effect of pH of washing buffers on binding to talc ([3]; pH 4.8-8.0): pH does not affect the binding; Average fluorescent signal (RHODAMINE 110) ([3]; talc/Biotin washed with Citrate buffer, pH 4.8): 14027.61; Average fluorescent signal (RHODAMINE 110) ([3]; talc/Biotin washed with PBS): 13760.41; Average fluorescent signal (RHODAMINE 110) ([3]; talc/Biotin washed with TBS, pH 8.0): 12868.68

— patent US20210236668A1, “COMPOSITIONS FOR RADIOTHERAPY AND USES THEREOF” (The Trustees of Columbia University in the City of New York, priority 2018, published 2021)
